Each structure is given as a SMILES string.

The series concerns His6-tagged GAFb domain of CyaB2. As to the kind of experiment: HDXMS of the GAFb domain. On the set-up: species or system Anabaena sp. PCC 7120. Conditions: 1 mM ligand, 20 °C, 0.5-10 min.

`Nc1ncnc2c1ncn2[C@@H]1O[C@@H]2COP(=O)(O)O[C@H]2[C@H]1O` [cAMP, adenosine 3′, 5′—cyclic monophosphate]: the “amide exchange / solvent accessibility of N- and C-terminal helices vs unliganded protein” value was “increased solvent accessibility”; the “amide exchange, ligand-binding pocket region, vs unliganded protein” value is given as “decrease in exchange”.

Consider `Nc1nc2c(ncn2[C@@H]2O[C@@H]3COP(=O)(O)O[C@H]3[C@H]2O)c(=O)[nH]1` [cGMP, guanosine 3′, 5′—cyclic monophosphate], for which the “amide exchange / solvent accessibility of N- and C-terminal helices vs unliganded protein” value is “lack of alteration in the dynamics of the terminal helices”; the “amide exchange, ligand-binding pocket region, vs unliganded protein” value is recorded as “only some regions in the ligand-binding pocket showed an increase in exchange”.

These data come from article PMC4411481, “Cyclic nucleotide binding and structural changes in the isolated GAF domain of Anabaena adenylyl cyclase, CyaB2” (PeerJ, 2015).
